Results as given in article PMC6026624.
These are yes or no findings as the source states them, for the method shown. Binding seen in cells or lysates may run through a third protein. Some binding calls cover weakened binding; strength is not graded here. Where a sequence is shown, tags or fusion partners need not be part of it.

Sequences of proteins named here, by UniProt entry; tags and fusion partners are left off.
UniProt Q7Z434: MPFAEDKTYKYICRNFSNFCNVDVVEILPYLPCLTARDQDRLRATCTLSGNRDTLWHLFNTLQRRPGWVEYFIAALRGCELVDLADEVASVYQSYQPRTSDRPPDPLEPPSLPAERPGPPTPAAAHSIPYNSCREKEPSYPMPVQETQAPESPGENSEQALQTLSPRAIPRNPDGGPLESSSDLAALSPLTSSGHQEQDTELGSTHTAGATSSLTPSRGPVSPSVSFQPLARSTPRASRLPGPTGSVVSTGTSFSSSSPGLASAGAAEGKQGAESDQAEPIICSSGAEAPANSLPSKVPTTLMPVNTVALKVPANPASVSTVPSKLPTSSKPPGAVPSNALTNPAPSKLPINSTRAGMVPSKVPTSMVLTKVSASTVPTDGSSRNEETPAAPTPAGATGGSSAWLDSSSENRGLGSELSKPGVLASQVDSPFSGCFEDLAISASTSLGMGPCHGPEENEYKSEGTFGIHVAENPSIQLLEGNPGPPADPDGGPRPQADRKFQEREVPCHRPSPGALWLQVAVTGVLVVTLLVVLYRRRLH

Molecular target: T1, FLAG tagged MDA5 (melanoma differentiation-associated protein 5) (human) (UniProt Q9BYX4)
T1 sequence: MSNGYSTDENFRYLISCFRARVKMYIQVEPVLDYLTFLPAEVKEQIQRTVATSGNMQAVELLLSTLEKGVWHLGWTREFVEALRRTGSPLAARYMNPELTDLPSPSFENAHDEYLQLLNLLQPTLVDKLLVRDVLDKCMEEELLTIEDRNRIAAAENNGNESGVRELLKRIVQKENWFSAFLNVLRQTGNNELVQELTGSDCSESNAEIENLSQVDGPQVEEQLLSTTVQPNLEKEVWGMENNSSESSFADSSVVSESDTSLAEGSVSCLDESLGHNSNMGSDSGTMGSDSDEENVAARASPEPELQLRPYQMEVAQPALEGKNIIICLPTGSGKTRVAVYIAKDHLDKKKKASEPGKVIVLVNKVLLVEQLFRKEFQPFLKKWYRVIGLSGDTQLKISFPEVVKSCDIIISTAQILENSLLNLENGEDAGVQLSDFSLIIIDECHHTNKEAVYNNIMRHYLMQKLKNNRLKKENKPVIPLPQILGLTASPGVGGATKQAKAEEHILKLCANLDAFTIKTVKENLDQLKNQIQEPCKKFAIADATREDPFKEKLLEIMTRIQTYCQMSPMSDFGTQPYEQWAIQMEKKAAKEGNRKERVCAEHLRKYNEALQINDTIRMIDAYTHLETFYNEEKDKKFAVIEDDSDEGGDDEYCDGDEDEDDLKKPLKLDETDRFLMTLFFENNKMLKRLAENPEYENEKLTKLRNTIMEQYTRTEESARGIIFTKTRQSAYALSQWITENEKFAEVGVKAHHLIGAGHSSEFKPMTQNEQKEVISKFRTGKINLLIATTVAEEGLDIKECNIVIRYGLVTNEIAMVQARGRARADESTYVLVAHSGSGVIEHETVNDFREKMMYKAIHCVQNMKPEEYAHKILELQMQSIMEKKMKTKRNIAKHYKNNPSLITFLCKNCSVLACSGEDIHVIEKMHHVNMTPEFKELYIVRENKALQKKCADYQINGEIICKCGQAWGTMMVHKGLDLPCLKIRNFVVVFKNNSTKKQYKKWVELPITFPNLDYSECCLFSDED
Assay: co-IP; HEK293T cells transfected with FLAG-MDA5 or FLAG-ΔRIG-I and Myc vector or increasing amounts of Myc-NS4A (plasmid molar ratio to FLAG-MDA5 1:3; to FLAG-ΔRIG-I 1:6, 1:3, 1:2); anti-FLAG precipitation, endogenous MAVS detected by immunoblot

Substance: endogenous MAVS (from UniProt Q7Z434 1-540)
- binding: binds
